# Measured values reported in the supplement of paper PMC12067093, “Discovery and optimisation of a covalent ligand for TRIM25 and its application to targeted protein ubiquitination” (Chemical Science, 2025).
# Amino acid sequences for entries named in this document (tags omitted). A change or cut given only in a name is not applied to a line headed by its entry.
# UniProt Q9NV96: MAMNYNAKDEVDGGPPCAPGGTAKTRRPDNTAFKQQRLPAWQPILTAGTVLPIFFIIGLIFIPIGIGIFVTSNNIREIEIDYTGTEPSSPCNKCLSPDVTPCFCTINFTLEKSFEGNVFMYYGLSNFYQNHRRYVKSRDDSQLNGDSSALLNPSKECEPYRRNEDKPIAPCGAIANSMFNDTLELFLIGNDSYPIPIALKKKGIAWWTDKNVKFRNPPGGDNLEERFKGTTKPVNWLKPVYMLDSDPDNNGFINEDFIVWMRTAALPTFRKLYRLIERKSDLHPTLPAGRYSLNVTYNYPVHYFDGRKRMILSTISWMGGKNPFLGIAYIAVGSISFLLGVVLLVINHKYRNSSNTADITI
# UniProt O94826, whole entry, looked up: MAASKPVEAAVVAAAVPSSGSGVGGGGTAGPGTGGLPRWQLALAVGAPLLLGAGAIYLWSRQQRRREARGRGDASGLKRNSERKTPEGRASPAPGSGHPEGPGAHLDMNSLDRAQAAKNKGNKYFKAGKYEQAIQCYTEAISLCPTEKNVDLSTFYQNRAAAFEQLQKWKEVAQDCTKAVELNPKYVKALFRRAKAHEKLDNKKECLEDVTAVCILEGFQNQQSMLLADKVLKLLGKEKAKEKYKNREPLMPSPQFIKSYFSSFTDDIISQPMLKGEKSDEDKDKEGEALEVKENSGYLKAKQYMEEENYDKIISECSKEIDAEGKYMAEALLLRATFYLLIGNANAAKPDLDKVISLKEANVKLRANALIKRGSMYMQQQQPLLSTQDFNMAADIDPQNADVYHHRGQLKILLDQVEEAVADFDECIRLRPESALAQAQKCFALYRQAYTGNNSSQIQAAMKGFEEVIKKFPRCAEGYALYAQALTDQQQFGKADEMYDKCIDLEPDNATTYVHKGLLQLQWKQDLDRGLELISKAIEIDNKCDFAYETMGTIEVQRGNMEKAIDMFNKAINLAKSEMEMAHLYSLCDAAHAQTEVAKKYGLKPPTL
# UniProt Q9Y490: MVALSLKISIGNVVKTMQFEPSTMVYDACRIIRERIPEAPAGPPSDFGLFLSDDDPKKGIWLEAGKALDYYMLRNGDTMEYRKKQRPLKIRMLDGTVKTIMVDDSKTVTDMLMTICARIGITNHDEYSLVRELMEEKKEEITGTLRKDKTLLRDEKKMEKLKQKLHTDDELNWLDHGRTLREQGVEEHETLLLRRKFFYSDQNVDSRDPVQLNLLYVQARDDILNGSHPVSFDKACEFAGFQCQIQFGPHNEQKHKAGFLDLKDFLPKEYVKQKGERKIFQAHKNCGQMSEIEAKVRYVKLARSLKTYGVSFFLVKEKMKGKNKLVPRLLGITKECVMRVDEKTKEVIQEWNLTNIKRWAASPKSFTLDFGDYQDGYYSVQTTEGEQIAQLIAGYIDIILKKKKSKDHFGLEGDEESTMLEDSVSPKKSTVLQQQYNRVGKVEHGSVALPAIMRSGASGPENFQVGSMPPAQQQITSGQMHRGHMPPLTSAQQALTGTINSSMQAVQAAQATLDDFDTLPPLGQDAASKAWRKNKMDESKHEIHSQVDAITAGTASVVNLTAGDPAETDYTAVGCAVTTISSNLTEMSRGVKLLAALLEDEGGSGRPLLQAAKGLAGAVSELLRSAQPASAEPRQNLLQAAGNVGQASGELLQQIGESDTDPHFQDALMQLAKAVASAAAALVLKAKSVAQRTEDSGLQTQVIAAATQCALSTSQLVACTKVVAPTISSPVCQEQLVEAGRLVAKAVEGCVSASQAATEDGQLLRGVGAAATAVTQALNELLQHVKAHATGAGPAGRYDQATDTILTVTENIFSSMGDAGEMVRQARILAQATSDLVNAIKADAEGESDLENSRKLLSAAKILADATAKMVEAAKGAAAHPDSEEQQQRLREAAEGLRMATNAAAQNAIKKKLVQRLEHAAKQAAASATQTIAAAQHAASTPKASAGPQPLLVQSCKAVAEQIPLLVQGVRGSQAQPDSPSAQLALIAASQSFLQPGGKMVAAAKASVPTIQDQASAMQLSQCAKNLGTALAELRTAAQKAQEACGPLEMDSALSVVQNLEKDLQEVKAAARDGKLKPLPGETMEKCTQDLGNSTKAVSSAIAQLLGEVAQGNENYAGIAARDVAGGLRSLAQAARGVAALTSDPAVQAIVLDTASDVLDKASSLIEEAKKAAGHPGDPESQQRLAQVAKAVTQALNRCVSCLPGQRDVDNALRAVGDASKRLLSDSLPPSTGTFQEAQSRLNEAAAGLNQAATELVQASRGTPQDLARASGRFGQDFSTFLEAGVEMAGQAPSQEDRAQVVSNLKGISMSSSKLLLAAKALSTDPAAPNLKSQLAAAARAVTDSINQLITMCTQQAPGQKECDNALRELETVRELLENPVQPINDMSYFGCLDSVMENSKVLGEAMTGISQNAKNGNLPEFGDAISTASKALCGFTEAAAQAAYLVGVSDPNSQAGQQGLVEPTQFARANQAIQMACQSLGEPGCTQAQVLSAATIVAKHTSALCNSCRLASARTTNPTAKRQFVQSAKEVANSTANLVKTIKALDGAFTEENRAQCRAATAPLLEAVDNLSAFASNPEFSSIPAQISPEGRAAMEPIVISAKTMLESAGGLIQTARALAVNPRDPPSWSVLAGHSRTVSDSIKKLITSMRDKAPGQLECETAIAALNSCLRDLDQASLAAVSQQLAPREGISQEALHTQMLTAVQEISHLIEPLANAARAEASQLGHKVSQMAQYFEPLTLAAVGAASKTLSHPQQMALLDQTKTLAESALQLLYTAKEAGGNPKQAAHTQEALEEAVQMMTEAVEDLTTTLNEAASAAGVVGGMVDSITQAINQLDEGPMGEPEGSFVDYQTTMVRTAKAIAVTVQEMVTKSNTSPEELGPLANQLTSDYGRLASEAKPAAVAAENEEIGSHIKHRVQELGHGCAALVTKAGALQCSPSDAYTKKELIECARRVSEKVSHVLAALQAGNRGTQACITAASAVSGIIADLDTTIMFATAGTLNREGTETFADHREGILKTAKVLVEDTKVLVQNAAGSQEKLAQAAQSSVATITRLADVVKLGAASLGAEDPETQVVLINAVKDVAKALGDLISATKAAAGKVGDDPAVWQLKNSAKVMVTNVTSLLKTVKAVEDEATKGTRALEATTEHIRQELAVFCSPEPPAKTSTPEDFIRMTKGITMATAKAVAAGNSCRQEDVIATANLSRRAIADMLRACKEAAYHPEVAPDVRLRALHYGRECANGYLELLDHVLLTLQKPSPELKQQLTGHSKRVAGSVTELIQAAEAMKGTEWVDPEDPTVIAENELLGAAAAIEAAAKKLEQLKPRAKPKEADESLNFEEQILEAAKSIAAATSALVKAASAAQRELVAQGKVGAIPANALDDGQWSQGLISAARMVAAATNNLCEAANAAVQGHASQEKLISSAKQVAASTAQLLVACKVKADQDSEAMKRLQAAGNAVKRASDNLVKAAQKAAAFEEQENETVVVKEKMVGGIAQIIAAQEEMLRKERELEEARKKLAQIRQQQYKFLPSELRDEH
# UniProt O96008: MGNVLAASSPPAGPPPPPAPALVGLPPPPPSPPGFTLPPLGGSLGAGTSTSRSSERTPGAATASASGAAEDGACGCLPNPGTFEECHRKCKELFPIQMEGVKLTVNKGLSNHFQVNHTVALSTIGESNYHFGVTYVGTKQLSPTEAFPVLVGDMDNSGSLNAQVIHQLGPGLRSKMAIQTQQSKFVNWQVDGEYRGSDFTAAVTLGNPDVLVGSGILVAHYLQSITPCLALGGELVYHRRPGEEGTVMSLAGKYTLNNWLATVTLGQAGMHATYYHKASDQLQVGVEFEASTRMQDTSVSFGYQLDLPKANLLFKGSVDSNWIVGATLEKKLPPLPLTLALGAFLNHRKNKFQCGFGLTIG
# UniProt P06753, whole entry, looked up: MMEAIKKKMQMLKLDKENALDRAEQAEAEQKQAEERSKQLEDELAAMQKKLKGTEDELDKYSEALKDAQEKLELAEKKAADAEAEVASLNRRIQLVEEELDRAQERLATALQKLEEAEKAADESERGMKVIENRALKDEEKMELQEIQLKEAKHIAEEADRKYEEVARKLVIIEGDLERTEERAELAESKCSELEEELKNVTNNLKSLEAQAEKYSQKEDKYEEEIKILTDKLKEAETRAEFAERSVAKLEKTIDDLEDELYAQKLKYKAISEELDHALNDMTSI
# UniProt O43399: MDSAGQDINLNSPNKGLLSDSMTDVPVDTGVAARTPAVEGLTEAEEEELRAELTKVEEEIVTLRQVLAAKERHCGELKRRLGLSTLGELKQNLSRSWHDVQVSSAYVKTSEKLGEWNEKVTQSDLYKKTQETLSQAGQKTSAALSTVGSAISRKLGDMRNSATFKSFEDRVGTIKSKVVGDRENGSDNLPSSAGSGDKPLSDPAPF
# UniProt P57088: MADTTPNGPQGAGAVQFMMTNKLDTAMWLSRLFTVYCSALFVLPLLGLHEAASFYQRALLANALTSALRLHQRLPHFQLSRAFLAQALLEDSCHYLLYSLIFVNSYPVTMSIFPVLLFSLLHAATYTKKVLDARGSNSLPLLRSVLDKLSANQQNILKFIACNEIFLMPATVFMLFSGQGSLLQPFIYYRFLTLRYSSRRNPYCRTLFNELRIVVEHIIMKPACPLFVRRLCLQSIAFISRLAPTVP
# UniProt Q12888: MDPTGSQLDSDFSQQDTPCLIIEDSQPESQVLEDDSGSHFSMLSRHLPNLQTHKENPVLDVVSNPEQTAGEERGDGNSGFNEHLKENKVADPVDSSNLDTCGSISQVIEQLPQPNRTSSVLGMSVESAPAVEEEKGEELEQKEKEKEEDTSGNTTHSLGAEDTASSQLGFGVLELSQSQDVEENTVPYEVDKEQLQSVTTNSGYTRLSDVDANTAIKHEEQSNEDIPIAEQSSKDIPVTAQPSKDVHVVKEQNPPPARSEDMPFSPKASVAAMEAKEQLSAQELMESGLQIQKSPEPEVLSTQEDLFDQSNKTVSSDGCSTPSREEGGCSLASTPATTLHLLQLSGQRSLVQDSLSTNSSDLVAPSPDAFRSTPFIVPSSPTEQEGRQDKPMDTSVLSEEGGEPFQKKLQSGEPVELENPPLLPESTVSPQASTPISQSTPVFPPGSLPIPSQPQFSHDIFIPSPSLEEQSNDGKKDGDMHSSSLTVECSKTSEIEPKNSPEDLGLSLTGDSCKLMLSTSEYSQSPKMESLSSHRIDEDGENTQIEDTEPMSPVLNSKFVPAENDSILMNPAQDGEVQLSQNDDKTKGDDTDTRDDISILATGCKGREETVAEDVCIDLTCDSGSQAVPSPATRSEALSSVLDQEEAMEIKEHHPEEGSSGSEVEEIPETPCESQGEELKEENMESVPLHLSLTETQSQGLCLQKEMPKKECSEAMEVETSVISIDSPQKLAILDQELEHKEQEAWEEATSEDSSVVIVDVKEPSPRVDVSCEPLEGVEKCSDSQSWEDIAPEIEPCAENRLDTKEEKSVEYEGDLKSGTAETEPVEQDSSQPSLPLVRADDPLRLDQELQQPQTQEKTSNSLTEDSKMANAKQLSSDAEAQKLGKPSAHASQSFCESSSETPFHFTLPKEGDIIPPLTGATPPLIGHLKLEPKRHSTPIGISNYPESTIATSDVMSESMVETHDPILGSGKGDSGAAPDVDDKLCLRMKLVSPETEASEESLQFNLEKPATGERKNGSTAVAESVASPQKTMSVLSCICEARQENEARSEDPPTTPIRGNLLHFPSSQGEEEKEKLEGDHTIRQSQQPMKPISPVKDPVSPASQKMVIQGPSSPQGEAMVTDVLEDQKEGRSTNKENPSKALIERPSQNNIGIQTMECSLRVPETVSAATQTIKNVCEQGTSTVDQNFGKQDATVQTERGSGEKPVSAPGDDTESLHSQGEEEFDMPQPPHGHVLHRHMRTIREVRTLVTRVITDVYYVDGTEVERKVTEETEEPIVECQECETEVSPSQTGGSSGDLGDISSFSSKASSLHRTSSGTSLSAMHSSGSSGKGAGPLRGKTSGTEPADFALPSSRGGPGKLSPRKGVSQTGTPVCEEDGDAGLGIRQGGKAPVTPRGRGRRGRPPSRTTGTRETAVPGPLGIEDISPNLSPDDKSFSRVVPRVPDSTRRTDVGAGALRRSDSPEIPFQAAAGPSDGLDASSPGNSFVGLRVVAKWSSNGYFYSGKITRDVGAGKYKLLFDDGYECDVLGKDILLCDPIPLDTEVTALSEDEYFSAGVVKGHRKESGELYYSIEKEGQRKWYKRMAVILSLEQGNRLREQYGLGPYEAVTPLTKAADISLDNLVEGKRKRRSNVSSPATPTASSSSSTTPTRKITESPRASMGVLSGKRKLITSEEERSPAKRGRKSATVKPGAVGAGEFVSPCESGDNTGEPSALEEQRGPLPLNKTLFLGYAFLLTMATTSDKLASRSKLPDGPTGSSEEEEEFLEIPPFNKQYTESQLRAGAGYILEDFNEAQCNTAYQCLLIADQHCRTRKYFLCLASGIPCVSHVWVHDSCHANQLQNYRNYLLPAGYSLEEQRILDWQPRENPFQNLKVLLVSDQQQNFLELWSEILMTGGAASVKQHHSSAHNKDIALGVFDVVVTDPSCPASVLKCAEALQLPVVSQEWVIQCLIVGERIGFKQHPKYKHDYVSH
# The list shows a part of the results.
# Compound: Cc1cc(ccc1-c1ccccc1)C(=O)N1CCCN(CC1)C(=O)CCl [compound 10]
# Assay: probe-labelled cysteine peptide fold change vs DMSO (competition) (log2 fold change); higher = less target engagement (more negative = stronger competition)
# Conditions: THP-1, incubation time: 4 h
# 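Note: competitive profiling in live THP-1 cells: cysteine peptides tagged with an iodoacetamide desthiobiotin (IA-DTB) probe, intensity after compound treatment relative to DMSO-treated cells.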
Target,probe-labelled cysteine peptide fold change (10 µM),probe-labelled cysteine peptide fold change (50 µM)
TMEM30A_Q9NV96_157_ECEPYRR (UniProt Q9NV96),-0.408,-0.195
TNPO3_Q9Y5L0_908_QVTSAEECK (UniProt Q9Y5L0),0.012,0.155
TOMM70_O94826_502_CIDLEPDNATTYVHK (UniProt O94826),-0.00269,0.16
TLN1_Q9Y490_750_AVEGCVSASQAATEDGQLLR (UniProt Q9Y490),0.31,0.325
TOPBP1_Q92547_430_WLLECFSK (UniProt Q92547),0.281,0.168
TMEM87B_Q96K49_121_LSVDEDFCHYLK (UniProt Q96K49),-0.258,-0.0953
TMPO_P42166_518_QLPSLACK (UniProt P42166),0.0286,-0.25
TP53I3_Q53FA7_76_QGQYDPPPGASNILGLEASGHVAELGPGCQGHWK (UniProt Q53FA7),0.0859,-0.0266
TOMM40_O96008_354_FQCGFGLTIG (UniProt O96008),-0.0217,0.0609
TPM3_P06753-2_154_CREMDEQIR (UniProt P06753),0.328,0.029
TMEM94_Q12767_381_CIWGHFLR (UniProt Q12767),0.0561,-0.131
TMEM106B_Q9NUM4_61_DSVTCPTCQGTGR (UniProt Q9NUM4),-0.109,-0.0327
TPD52L2_O43399_74_HCGELK (UniProt O43399),-0.0703,-0.203
TMEM33_P57088_204_RNPYCR (UniProt P57088),0.126,0.387
TP53BP1_Q12888_1038+1040_TMSVLSCICEAR (UniProt Q12888),-0.295,-0.659

# A few values from the list:
# Under probe-labelled cysteine peptide fold change (10 µM), TPD52L2_O43399_74_HCGELK (UniProt O43399) is listed with -0.0703
# Under probe-labelled cysteine peptide fold change (50 µM), TOMM70_O94826_502_CIDLEPDNATTYVHK (UniProt O94826) is listed with 0.16
